Some of the results follow.

Amino acid sequences for entries named in this document (tags omitted). A change or cut given only in a name is not applied to a line headed by its entry.
UniProt Q96C24: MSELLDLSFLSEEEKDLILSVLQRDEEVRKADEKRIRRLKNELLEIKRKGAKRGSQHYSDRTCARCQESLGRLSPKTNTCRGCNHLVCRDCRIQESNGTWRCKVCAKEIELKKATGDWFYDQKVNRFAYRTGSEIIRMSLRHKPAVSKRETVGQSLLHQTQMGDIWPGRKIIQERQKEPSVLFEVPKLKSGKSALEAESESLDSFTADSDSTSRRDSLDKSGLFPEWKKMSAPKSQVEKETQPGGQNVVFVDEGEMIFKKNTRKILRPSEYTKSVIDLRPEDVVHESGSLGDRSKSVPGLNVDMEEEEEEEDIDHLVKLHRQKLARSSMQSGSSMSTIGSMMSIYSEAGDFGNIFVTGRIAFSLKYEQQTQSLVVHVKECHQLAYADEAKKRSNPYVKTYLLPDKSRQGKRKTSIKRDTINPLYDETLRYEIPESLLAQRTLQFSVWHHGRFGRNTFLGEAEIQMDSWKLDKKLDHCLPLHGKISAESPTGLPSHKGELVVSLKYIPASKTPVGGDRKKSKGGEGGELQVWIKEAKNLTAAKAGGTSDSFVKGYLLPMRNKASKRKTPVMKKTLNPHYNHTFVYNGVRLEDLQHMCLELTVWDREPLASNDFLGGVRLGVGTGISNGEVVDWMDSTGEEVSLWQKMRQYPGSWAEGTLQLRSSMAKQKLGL
UniProt Q8N2H4: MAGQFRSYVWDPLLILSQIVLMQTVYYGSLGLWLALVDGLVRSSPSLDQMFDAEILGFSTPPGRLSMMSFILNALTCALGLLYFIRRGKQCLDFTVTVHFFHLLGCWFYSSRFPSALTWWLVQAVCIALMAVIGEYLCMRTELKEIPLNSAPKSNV
UniProt Q15543, whole entry, looked up: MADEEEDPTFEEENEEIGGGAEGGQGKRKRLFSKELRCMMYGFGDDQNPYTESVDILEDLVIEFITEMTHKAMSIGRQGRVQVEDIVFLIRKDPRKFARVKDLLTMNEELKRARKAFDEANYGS
UniProt Q13188: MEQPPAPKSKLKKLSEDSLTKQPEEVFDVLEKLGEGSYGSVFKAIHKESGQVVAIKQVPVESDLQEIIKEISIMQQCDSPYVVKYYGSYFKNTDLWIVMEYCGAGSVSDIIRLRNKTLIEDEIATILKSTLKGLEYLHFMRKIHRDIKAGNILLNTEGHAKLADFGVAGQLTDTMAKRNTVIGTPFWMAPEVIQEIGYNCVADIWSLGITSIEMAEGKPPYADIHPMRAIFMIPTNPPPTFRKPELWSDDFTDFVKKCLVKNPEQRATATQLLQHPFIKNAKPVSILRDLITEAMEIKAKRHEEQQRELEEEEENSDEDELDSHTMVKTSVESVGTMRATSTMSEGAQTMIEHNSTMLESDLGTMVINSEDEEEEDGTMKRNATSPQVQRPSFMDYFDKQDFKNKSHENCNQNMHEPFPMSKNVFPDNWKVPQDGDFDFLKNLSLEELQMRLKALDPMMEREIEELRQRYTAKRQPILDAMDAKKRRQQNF
UniProt Q9NRP7: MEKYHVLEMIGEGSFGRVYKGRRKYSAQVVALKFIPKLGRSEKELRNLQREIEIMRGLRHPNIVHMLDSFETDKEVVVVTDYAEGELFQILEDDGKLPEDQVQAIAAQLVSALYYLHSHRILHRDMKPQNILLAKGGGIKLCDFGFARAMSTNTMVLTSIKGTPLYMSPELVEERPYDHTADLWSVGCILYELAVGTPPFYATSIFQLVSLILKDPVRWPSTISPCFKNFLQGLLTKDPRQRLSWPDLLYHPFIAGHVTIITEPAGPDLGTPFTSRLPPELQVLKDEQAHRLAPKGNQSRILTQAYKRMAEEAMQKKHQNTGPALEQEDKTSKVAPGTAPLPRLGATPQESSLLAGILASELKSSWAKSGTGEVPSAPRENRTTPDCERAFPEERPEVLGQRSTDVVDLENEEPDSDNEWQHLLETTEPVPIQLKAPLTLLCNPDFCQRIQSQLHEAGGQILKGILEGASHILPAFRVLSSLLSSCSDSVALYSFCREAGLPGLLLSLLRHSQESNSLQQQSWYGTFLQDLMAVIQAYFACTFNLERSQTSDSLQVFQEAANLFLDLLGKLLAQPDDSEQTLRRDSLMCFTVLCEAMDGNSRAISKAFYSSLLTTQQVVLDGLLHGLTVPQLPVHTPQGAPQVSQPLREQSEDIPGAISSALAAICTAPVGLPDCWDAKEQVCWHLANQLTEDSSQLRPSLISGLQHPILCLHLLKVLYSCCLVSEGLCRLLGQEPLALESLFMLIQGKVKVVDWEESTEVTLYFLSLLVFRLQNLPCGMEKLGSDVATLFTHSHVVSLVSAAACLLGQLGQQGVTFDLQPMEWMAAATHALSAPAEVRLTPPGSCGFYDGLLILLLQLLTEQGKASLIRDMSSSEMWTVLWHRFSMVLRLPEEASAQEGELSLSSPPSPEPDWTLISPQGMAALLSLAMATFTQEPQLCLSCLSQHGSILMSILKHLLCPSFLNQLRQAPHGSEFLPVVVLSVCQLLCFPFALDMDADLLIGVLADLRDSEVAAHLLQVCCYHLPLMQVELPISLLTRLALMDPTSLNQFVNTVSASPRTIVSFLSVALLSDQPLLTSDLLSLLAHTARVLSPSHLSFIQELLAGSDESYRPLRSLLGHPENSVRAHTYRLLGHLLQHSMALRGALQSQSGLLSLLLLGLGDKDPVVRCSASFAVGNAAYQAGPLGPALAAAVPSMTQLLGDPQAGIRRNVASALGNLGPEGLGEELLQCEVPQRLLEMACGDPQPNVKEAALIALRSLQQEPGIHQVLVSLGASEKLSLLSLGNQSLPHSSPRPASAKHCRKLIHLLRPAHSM
UniProt Q9H7L9: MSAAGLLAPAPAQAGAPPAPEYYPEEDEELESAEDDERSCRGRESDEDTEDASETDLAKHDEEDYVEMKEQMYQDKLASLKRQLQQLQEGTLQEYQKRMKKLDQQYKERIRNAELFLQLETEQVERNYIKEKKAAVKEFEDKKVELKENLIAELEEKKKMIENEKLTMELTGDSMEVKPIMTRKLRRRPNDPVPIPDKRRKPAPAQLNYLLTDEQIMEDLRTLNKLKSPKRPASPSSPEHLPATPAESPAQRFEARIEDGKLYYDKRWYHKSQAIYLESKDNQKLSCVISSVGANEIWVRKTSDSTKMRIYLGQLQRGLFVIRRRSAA
UniProt Q9Y2Z0: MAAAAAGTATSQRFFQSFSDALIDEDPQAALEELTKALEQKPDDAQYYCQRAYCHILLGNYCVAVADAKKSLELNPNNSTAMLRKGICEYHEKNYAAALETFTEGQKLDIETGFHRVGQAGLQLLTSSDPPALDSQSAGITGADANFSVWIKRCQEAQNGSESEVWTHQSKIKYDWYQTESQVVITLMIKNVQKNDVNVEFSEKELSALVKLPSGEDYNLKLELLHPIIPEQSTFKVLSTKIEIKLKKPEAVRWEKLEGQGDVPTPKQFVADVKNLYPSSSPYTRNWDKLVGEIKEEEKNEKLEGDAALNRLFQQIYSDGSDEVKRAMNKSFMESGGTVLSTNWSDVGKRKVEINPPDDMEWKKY
UniProt Q9Y6J9: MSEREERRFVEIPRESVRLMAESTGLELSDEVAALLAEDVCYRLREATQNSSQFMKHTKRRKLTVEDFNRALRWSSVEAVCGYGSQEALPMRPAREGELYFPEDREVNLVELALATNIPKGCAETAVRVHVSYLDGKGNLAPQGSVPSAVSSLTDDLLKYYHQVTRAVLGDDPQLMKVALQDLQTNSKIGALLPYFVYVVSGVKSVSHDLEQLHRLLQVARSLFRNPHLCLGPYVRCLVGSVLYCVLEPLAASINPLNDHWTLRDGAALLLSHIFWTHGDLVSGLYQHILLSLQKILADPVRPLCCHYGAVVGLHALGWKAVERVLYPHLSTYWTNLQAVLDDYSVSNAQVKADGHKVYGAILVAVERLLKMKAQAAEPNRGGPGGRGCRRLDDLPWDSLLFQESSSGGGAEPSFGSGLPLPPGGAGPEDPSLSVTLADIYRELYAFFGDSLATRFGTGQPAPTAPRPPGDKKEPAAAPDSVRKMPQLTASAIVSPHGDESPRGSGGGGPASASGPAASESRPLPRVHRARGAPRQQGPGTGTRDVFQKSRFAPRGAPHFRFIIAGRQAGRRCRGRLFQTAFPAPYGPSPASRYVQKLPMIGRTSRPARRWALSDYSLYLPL
UniProt Q8WUJ0: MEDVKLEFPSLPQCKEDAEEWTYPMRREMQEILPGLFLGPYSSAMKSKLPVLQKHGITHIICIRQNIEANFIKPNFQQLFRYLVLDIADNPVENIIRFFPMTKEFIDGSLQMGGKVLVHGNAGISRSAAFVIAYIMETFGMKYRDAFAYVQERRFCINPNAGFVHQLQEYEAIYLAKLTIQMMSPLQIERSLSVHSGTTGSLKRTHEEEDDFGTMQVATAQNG
UniProt Q1ZZU3: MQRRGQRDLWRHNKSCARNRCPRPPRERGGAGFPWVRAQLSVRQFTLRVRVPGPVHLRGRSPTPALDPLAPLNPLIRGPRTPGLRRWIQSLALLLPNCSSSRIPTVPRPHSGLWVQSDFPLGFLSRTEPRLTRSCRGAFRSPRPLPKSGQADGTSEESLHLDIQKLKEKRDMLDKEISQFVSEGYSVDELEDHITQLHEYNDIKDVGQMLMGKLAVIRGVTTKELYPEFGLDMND
UniProt O00268, whole entry, looked up: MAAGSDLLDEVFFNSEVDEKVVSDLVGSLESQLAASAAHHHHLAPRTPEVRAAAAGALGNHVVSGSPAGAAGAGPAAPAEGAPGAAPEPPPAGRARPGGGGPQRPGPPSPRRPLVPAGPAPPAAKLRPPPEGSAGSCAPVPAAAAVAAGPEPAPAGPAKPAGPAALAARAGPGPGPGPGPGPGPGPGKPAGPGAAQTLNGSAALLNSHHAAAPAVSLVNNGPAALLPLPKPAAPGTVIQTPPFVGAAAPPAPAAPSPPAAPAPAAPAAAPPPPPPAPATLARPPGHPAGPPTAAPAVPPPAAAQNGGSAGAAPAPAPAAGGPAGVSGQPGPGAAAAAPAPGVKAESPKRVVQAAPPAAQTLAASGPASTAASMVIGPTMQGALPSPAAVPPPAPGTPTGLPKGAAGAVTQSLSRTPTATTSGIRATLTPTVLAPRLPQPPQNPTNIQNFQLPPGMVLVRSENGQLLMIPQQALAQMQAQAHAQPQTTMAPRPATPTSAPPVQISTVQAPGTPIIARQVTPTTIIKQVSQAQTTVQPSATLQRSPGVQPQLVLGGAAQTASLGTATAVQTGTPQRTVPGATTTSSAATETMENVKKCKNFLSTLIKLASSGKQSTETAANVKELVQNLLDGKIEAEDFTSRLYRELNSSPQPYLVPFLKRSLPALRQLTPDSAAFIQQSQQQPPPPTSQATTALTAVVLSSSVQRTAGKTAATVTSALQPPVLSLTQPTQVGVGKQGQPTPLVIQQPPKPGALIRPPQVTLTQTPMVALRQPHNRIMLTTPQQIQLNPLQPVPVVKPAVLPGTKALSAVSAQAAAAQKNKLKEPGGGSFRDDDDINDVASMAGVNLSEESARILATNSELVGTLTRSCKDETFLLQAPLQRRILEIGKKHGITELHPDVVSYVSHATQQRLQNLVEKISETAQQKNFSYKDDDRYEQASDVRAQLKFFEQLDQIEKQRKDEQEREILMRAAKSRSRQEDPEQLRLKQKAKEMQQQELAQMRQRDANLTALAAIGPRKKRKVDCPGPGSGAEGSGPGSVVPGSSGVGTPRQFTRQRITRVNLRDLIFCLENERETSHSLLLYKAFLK
UniProt Q8WXE9: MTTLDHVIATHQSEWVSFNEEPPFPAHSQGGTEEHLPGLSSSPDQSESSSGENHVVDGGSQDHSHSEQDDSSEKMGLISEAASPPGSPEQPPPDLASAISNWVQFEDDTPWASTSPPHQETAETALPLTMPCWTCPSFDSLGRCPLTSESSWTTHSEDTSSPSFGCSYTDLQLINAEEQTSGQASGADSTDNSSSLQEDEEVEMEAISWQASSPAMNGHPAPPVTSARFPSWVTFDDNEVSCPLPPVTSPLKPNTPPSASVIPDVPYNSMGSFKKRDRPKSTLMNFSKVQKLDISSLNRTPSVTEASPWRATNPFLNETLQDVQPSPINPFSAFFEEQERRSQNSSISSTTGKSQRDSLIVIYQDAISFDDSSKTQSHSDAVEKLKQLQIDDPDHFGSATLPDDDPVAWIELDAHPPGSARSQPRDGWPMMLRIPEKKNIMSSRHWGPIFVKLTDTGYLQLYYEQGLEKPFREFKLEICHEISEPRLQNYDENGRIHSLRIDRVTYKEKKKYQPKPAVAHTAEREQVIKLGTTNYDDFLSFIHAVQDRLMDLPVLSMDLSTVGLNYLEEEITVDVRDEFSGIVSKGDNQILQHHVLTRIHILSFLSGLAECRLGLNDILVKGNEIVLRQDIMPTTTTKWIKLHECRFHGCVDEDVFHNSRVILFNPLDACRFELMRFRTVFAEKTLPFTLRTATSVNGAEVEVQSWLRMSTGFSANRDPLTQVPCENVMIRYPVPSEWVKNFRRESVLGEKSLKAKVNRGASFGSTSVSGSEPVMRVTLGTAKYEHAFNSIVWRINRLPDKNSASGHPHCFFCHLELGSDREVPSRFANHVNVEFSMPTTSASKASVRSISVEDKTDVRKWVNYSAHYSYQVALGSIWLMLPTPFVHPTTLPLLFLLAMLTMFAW

Compound in one assay: CN1C2=C(C3=C1C(=O)N(N=C3)CC4=CC(=CC=C4)N)SC(=C2)S(=O)C
Description: log2 fold change, soluble protein after heating vs DMSO (PISA); higher = thermal stabilisation; K562 cells, 10 uM, 30 min; active = over 0.2 and 3.5 SD of the protein, either way, in both replicates (recomputed). The method in brief: (§1)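 K562 cells at 2×10^6 cells/mL were exposed to 10 μM compound for 30 min, then aliquots were heated for 3 min across 48°C-58°C, pooled, and extracted in PBS containing 0.5% NP-40 at 4°C. The supernatant after 21,000xg for 90 min was taken as soluble protein and measured by TMTpro 16plex LC-MS/MS with channel sums equalised. Thermal stability is reported relative to control samples, with values from duplicates. Fold changes are given on a log2 scale.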
For the target TAGLN3 (UniProt Q9UI15), the log2 fold change is inactive: 0.045.

Regarding STK35 (UniProt Q8TDR2), the log2 fold change was inactive: -0.152.

For SYTL4 (UniProt Q96C24), the log2 fold change is inactive: 0.089.

As for SYS1 (UniProt Q8N2H4), the log2 fold change was inactive: 0.084.

Turning to SUZ12 (UniProt Q15022), the log2 fold change was inactive: 0.021.

Consider TAF13 (UniProt Q15543), for which the log2 fold change was inactive: -0.063.

Consider STK38L (UniProt Q9Y2H1), for which the log2 fold change was inactive: -0.029.

Consider STK3 isoform 2 (UniProt Q13188), for which the log2 fold change was inactive: -0.018.

In the case of STK36 (UniProt Q9NRP7), the log2 fold change was inactive: 0.018.

Regarding TAZ (UniProt Q16635), the log2 fold change is inactive: -0.038.

On to TAF11 (UniProt Q15544), for which the log2 fold change is inactive: 0.046.

Turning to SUDS3 (UniProt Q9H7L9), the log2 fold change was inactive: -0.109.

For SUGT1 isoform 2 (UniProt Q9Y2Z0), the log2 fold change is inactive: -0.109.

On to TAF6L (UniProt Q9Y6J9), for which the log2 fold change was inactive: 0.081.

With STYX (UniProt Q8WUJ0), the log2 fold change is inactive: -0.072.

As for SYK (UniProt P43405), the log2 fold change was inactive: -0.052.

Take SUMF1 isoform 3 (UniProt Q8NBK3): the log2 fold change was inactive: -0.026.

Consider TBC1D10A (UniProt Q9BXI6), for which the log2 fold change is inactive: 0.111.

STK40 isoform 4 (UniProt Q8N2I9): the log2 fold change is inactive: 0.186.

As to TAF9B (UniProt Q9HBM6), the log2 fold change was inactive: -0.012.

On to SYNE1 (UniProt Q8NF91), for which the log2 fold change is inactive: 0.051.

Consider SYNJ2 (UniProt O15056), for which the log2 fold change is inactive: -0.243.

Regarding SWI5 (UniProt Q1ZZU3), the log2 fold change was inactive: 0.009.

Compound in the next assay: CN1CCC(CNc2ccc3ncc(-c4cccc(OC(F)(F)F)c4)n3n2)CC1
The assay is described as above. The gist of the method: as §1
As to STRN3 isoform 2 (UniProt Q13033), the log2 fold change is inactive: 0.096.

As for TAF4 (UniProt O00268), the log2 fold change was inactive: 0.029.

Turning to SYS1 (UniProt Q8N2H4), the log2 fold change was inactive: -0.084.

As for TAF13 (UniProt Q15543), the log2 fold change is inactive: 0.243.

As for STON2 isoform 3 (UniProt Q8WXE9), the log2 fold change is inactive: 0.168.

Turning to SULT1E1 (UniProt P49888), the log2 fold change was inactive: 0.036.

Regarding STK38L (UniProt Q9Y2H1), the log2 fold change is inactive: 0.016.

As to STK3 isoform 2 (UniProt Q13188), the log2 fold change was inactive: -0.013.

As to STK36 (UniProt Q9NRP7), the log2 fold change was inactive: -0.472.

As to TAF11 (UniProt Q15544), the log2 fold change is inactive: 0.002.

Take TAF5 (UniProt Q15542): the log2 fold change was inactive: -0.14.

Consider TAF6L (UniProt Q9Y6J9), for which the log2 fold change was inactive: -0.126.

In the case of STYX (UniProt Q8WUJ0), the log2 fold change is inactive: -0.312.

Consider SUMF1 isoform 3 (UniProt Q8NBK3), for which the log2 fold change was inactive: 0.11.

Turning to TBC1D10A (UniProt Q9BXI6), the log2 fold change is inactive: -0.421.

In the case of TAF9B (UniProt Q9HBM6), the log2 fold change was inactive: -0.104.

Consider SYNE1 (UniProt Q8NF91), for which the log2 fold change was inactive: -0.208.

For SYNJ2 (UniProt O15056), the log2 fold change was inactive: -0.098.

With SWI5 (UniProt Q1ZZU3), the log2 fold change was inactive: -0.219.

Source of the values: the supplement of paper PMC10849652.
